Laboratory results as given in PMC6021368.
No constants are given. Whether binding was seen depends on the method and setting. For some of these results: In cells and extracts the contact can be indirect. Some entries that bind do so weakly or less than the wild type. For some of these results: Tags and fused reporters may be left off the sequences shown.

Chains of the proteins cited; added tags and fusions are not shown.
UniProt Q96GD4: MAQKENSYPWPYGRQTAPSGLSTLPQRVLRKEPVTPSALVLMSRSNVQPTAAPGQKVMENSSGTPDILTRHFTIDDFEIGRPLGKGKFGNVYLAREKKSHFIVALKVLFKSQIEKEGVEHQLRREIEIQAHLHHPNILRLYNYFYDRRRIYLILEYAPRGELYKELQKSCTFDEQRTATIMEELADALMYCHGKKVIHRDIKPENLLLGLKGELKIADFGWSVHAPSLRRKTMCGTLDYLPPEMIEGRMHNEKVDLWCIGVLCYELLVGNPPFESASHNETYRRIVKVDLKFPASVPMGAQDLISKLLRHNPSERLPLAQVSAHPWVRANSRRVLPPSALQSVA
UniProt Q99816: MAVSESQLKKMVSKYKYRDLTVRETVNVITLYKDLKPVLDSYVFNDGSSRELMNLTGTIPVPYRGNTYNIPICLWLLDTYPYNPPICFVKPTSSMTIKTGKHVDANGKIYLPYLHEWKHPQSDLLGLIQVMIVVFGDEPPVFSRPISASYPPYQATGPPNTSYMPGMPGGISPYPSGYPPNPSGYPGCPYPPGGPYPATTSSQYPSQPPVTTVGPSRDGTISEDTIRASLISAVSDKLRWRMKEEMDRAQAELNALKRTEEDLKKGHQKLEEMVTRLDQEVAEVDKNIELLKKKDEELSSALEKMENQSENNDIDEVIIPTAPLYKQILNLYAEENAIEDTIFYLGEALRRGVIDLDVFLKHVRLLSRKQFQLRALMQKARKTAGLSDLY
UniProt Q8WUM4: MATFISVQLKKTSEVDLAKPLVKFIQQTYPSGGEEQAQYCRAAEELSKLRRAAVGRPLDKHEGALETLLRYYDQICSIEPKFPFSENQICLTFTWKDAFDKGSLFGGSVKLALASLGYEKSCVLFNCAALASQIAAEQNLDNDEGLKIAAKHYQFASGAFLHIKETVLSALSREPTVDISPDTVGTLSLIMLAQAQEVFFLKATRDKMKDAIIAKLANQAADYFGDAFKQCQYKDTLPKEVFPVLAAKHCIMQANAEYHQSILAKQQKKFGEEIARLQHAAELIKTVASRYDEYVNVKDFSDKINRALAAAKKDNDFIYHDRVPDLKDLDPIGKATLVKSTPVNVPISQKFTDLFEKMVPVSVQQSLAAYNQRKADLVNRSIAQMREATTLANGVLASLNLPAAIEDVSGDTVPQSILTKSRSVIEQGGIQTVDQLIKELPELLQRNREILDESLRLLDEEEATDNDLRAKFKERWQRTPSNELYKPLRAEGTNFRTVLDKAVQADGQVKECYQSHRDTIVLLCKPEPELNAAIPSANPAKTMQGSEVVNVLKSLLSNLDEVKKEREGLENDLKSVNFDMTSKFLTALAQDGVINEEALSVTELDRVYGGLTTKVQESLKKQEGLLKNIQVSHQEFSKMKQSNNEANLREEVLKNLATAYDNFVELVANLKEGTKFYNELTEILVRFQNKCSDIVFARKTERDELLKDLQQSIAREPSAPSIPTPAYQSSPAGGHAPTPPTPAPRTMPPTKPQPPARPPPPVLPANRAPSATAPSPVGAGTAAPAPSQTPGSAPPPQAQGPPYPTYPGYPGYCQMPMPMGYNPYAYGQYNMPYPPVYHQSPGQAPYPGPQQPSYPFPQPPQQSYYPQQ

T1: GST-HIPK2 deletion mutant (1-845) (UniProt Q9QZR5)
T1 sequence: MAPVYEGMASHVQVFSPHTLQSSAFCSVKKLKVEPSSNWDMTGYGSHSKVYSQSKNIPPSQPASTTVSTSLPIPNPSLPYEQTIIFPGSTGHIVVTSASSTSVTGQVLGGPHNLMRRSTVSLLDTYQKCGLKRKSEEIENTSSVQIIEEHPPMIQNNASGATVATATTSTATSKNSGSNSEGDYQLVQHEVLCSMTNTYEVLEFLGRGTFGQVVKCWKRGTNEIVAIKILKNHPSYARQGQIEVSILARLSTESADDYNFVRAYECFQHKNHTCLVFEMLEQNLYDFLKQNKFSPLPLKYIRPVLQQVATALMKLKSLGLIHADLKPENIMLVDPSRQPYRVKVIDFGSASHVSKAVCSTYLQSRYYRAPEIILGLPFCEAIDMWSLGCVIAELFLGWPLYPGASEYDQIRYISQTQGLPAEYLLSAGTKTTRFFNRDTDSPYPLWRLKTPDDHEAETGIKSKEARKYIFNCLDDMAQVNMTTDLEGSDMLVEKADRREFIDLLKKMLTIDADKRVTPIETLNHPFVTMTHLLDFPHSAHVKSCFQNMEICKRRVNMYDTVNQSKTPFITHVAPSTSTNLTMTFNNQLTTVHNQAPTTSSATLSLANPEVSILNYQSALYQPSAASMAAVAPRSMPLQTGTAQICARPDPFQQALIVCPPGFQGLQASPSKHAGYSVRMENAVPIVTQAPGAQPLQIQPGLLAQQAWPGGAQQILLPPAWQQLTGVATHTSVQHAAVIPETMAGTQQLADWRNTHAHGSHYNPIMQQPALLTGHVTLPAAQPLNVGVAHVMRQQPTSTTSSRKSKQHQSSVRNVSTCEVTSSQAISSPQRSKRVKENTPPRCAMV


Key:
[1] = biological target: GST-HIPK2(FL) (UniProt Q9QZR5); assay: pull-down; GST-fusion proteins purified from H1299 on glutathione sepharose beads as bait, incubated with 0.6 mg of telophase total cell extract (T-TCE) of HeLa cells in 50 mM Tris-HCl pH 7.5, 200 mM NaCl, 0.5% NP40; Western blot; only the target purified
[2] = biological target: GFP-HIPK2 (UniProt Q9QZR5); assay: pull-down; GFP-HIPK2 held on anti-GFP Ab-sepharose beads (GFP-immunoprecipitation), incubated with recombinant GST-Aurora-B in 50 mM Tris-HCl pH 7.5 at 150 and 250 mM NaCl; Western blot; both purified
[3] = biological target: T1, GST-HIPK2 deletion mutant (1-845); assay: pull-down; GST-fusion proteins purified from H1299 on glutathione sepharose beads as bait, incubated with 0.6 mg of telophase total cell extract (T-TCE) of HeLa cells in 50 mM Tris-HCl pH 7.5, 200 mM NaCl, 0.5% NP40; Western blot; only the target purified

binding [1]	binding [2]	binding [3]	Molecule
no binding	–	–	Aurora-B (from UniProt Q96GD4 1-344) (enzyme)
no binding	–	–	TSG101 (from UniProt Q99816 1-390)
no binding	–	–	ALIX (from UniProt Q8WUM4 1-868)
–	no binding	–	recombinant glutathione S-transferase (GST)-Aurora-B (from UniProt Q96GD4 1-344) (enzyme)
binds	–	no binding	MgcRacGAP (protein, UniProt Q9H0H5 1-632) MDTMMLNVRNLFEQLVRRVEILSEGNEVQFIQLAKDFEDFRKKWQRTDHELGKYKDLLMKAETERSALDVKLKHARNQVDVEIKRRQRAEADCEKLERQIQLIREMLMCDTSGSIQLSEEQKSALAFLNRGQPSSSNAGNKRLSTIDESGSILSDISFDKTDESLDWDSSLVKTFKLKKREKRRSTSRQFVDGPPGPVKKTRSIGSAVDQGNESIVAKTTVTVPNDGGPIEAVSTIETVPYWTRSRRKTGTLQPWNSDSTLNSRQLEPRTETDSVGTPQSNGGMRLHDFVSKTVIKPESCVPCGKRIKFGKLSLKCRDCRVVSHPECRDRCPLPCIPTLIGTPVKIGEGMLADFVSQTSPMIPSIVVHCVNEIEQRGLTETGLYRISGCDRTVKELKEKFLRVKTVPLLSKVDDIHAICSLLKDFLRNLKEPLLTFRLNRAFMEAAEITDEDNSIAAMYQAVGELPQANRDTLAFLMIHLQRVAQSPHTKMDVANLAKVFGPTIVAHAVPNPDPVTMLQDIKRQPKVVERLLSLPLEYWSQFMMVEQENIDPLHVIENSNAFSTPQTPDIKVSLLGPVTTPEHQLLKTPSSSSLSQRVRSTLTKNTPRFGSKSKSATNLGRQGNFFASPMLK
no binding	–	–	CEP55 (protein, UniProt Q53EZ4 1-464) MSSRSTKDLIKSKWGSKPSNSKSETTLEKLKGEIAHLKTSVDEITSGKGKLTDKERHRLLEKIRVLEAEKEKNAYQLTEKDKEIQRLRDQLKARYSTTTLLEQLEETTREGERREQVLKALSEEKDVLKQQLSAATSRIAELESKTNTLRLSQTVAPNCFNSSINNIHEMEIQLKDALEKNQQWLVYDQQREVYVKGLLAKIFELEKKTETAAHSLPQQTKKPESEGYLQEEKQKCYNDLLASAKKDLEVERQTITQLSFELSEFRRKYEETQKEVHNLNQLLYSQRRADVQHLEDDRHKTEKIQKLREENDIARGKLEEEKKRSEELLSQVQFLYTSLLKQQEEQTRVALLEQQMQACTLDFENEKLDRQHVQHQLHVILKELRKARNQITQLESLKQLHEFAITEPLVTFQGETENREKVAASPKSPTAALNESLVECPKCNIQYPATEHRDLLVHVEYCSK
